Measured values as given in patent US20110218188A1, “SUBSTITUTED (PYRIDYL)-AZINYLAMINE DERIVATIVES AS FUNGICIDES” (priority 2008, published 2011).
Some of these results come from one statement about several compounds together.

Tests used:
[1] = tested on: Leptosphaeria nodorum; test: Leptosphaeria test (wheat)/preventive; details: 500 ppm of active ingredient, preventive, evaluated 7-9 days after the inoculation
[2] = tested on: Venturia inaequalis; test: Venturia test (apples)/protective; assay type: in vivo; details: 100 ppm of active ingredient, protective, evaluated 10 days after the inoculation

## CN(CC1CC1)C(=O)c1cc(-c2ncnc(Nc3cccc(C(F)(F)F)c3)n2)ccn1 [Example B357]
[1]
  efficacy: ≥ 70%
[2]
  efficacy: ≥ 70%

## CCN(CC)C(=S)c1cc(-c2ncnc(Nc3ccc(F)c(C(F)F)c3)n2)ccn1 [Example B327]
[1]
  efficacy: ≥ 70%

## CN(CCC#N)C(=S)c1cc(-c2ncnc(Nc3cccc(Cl)c3)n2)ccn1 [Example B343]
[1]
  efficacy: ≥ 70%

## CC(=O)Nc1cccc(Nc2ncnc(-c3ccnc(C(=O)N(C)C)c3)n2)c1 [Example B307]
[1]
  efficacy: ≥ 70%

## CCN(CC)C(=O)c1cc(-c2ncnc(Nc3cccc(C(F)(F)F)c3)n2)ccn1 [Example B346]
[1]
  efficacy: ≥ 70%

## CN(C)C(=O)c1cc(-c2ncnc(Nc3ccc(F)c(F)c3)n2)ccn1 [Example B377]
[1]
  efficacy: ≥ 70%

## CC(C)CN(C)C(=O)c1cc(-c2ncnc(Nc3cccc(C(F)(F)F)c3)n2)ccn1 [Example B362]
[1]
  efficacy: ≥ 70%
[2]
  efficacy: ≥ 70%

## CCN(CC)C(=S)c1cc(-c2ncnc(Nc3cccc(OC)c3)n2)ccn1 [Example B282]
[1]
  efficacy: ≥ 70%
[2]
  efficacy: ≥ 70%

## CN(CC1CC1)C(=O)c1cc(-c2ncnc(Nc3ccc(F)c(F)c3)n2)ccn1 [Example B381]
[1]
  efficacy: ≥ 70%
[2]
  efficacy: ≥ 70%

## CC(=O)c1cc(-c2ncnc(Nc3cccc(Cl)c3)n2)ccn1 [Example B26, 1-(4-{4-[(3-chlorophenyl)amino]-1,3,5-triazin-2-yl}pyridin-2-yl)ethanone]
[1]
  efficacy: ≥ 70%

## CCN(CC)C(=O)c1cc(-c2ncnc(Nc3cccc(OC(F)(F)C(F)F)c3)n2)ccn1 [Example B348]
[1]
  efficacy: ≥ 70%

## CCCN(C)C(=S)c1cc(-c2ncnc(Nc3ccc(F)c(C(F)F)c3)n2)ccn1 [Example B334]
[1]
  efficacy: ≥ 70%

## COCC(=O)N(c1ccccc1)c1ncnc(-c2ccnc(C(=O)N(C)CC3CC3)c2)n1 [Example B401]
[1]
  efficacy: ≥ 70%
[2]
  efficacy: ≥ 70%

## COCC(C1CC1)N(C)C(=O)c1cc(-c2ncnc(Nc3cccc(OC(F)F)c3)n2)ccn1 (centres unmarked) [Example B303]
[1]
  efficacy: ≥ 70%

## C=CCON=C(C)c1cc(-c2ncnc(Nc3cccc(Cl)c3)n2)ccn1 (mixture of isomers) [Example B29]
[1]
  efficacy: ≥ 70%

## COc1cccc(Nc2ncnc(-c3ccnc(C(=O)N(C)CC4CC4)c3)n2)c1F [Example B275]
[1]
  efficacy: ≥ 70%
[2]
  efficacy: ≥ 70%

## CCN(C)C(=S)c1cc(-c2ncnc(Nc3cccc(C(F)(F)F)c3)n2)ccn1 [Example B257]
[1]
  efficacy: ≥ 70%
[2]
  efficacy: ≥ 70%

## CC(=O)Nc1cccc(Nc2ncnc(-c3ccnc(C(=O)N(C)CC(C)C)c3)n2)c1 [Example B308]
[1]
  efficacy: ≥ 70%

## CC(C)N(C)C(=O)c1cc(-c2ncnc(Nc3ccc(Cl)c(C(F)F)c3)n2)ccn1 [Example B391]
[1]
  efficacy: ≥ 70%

## CCN(CC)C(=O)c1cc(-c2ncnc(Nc3cccc(OC(F)(F)F)c3)n2)ccn1 [Example B263]
[1]
  efficacy: ≥ 70%

## CC(C)N(C)C(=O)c1cc(-c2ncnc(Nc3cccc(C#N)c3)n2)ccn1 [Example B296]
[1]
  efficacy: ≥ 70%

## COCCN(C)C(=O)c1cc(-c2ncnc(Nc3cccc(OC(F)(F)F)c3)n2)ccn1 [Example B270]
[1]
  efficacy: ≥ 70%

## CC(C)CN(C)C(=S)c1cc(-c2ncnc(Nc3ccc(F)c(C(F)F)c3)n2)ccn1 [Example B335]
[1]
  efficacy: ≥ 70%

## CCCN(C)C(=O)c1cc(-c2ncnc(Nc3ccc(F)c(F)c3)n2)ccn1 [Example B379]
[1]
  efficacy: ≥ 70%
[2]
  efficacy: ≥ 70%

## CCN(CC)C(=S)c1cc(-c2ncnc(Nc3cccc(C(F)F)c3)n2)ccn1 [Example B328]
[1]
  efficacy: ≥ 70%

## CCN(C)C(=S)c1cc(-c2ncnc(Nc3cccc(C(F)F)c3)n2)ccn1 [Example B341]
[1]
  efficacy: ≥ 70%

## CCN(C)C(=S)c1cc(-c2ncnc(Nc3cccc(C(C)C)c3)n2)ccn1 [Example B259]
[1]
  efficacy: ≥ 70%

## CN(CCC#N)C(=O)c1cc(-c2ncnc(Nc3cccc(OC(F)(F)F)c3)n2)ccn1 [Example B262]
[1]
  efficacy: ≥ 70%

## CCN(C)C(=O)c1cc(-c2ncnc(Nc3cc(F)ccc3F)n2)ccn1 [Example B358]
[1]
  efficacy: ≥ 70%
[2]
  efficacy: ≥ 70%

## CN(CCC#N)C(=S)c1cc(-c2ncnc(Nc3ccc(F)c(C(F)F)c3)n2)ccn1 [Example B340]
[1]
  efficacy: ≥ 70%

## CCCN(C)C(=O)c1cc(-c2ncnc(Nc3cccc(C(F)(F)F)c3)n2)ccn1 [Example B356]
[1]
  efficacy: ≥ 70%

## CCN(CC)C(=O)c1cc(-c2ncnc(Nc3ccc(F)c(Cl)c3)n2)ccn1 [Example B202]
[1]
  efficacy: ≥ 70%

## CC(=O)N(c1ccccc1)c1ncnc(-c2ccnc(C(=S)N(C)CC3CC3)c2)n1 [Example B344, N-(4-{2-[(cyclopropylmethyl)(methyl)carbamothioyl]pyridin-4-yl}-1,3,5-triazin-2-yl)-N-phenylacetamide]
[1]
  efficacy: ≥ 70%

## CCN(CC)C(=S)c1cc(-c2ncnc(Nc3cccc(C(F)(F)F)c3)n2)ccn1 [Example B326]
[1]
  efficacy: ≥ 70%

## CC(C)N(C)C(=O)c1cc(-c2ncnc(Nc3cccc(OC(F)F)c3)n2)ccn1 [Example B302]
[1]
  efficacy: ≥ 70%

## CCCN(C)C(=S)c1cc(-c2ncnc(Nc3cccc(OC)c3)n2)ccn1 [Example B283]
[1]
  efficacy: ≥ 70%

## CCN(CC)C(=S)c1cc(-c2ncnc(Nc3ccsc3)n2)ccn1 [Example C22]
[1]
  efficacy: ≥ 70%

## Cc1ccc(Nc2ncnc(-c3ccnc(C(=O)N(C)C(C)C)c3)n2)cc1Cl [Example B365]
[1]
  efficacy: ≥ 70%
[2]
  efficacy: ≥ 70%

## CN(C)C(=O)c1cc(-c2ncnc(Nc3cccc(C#N)c3)n2)ccn1 [Example B294]
[1]
  efficacy: ≥ 70%

## CN(CC(F)F)C(=O)c1cc(-c2ncnc(Nc3cccc(C#N)c3)n2)ccn1 [Example B369]
[1]
  efficacy: ≥ 70%
[2]
  efficacy: ≥ 70%

## CN(CCO)C(=O)c1cc(-c2ncnc(Nc3cccc(Cl)c3)n2)ccn1 [Example B136]
[1]
  efficacy: ≥ 70%

## CCN(C)C(=S)c1cc(-c2ncnc(Nc3ccsc3)n2)ccn1 [Example C23]
[1]
  efficacy: ≥ 70%

## COC(=O)c1cc(-c2ncnc(Nc3cccc(Cl)c3)n2)ccn1 [Example B25]
[1]
  efficacy: ≥ 70%

## COC(C)C(C)N(C)C(=O)c1cc(-c2ncnc(Nc3cccc(Cl)c3)n2)ccn1 (centres unmarked) [Example B189]
[1]
  efficacy: ≥ 70%

## COCCN(C)C(=O)c1cc(-c2ncnc(Nc3cccc(OC)c3)n2)ccn1 [Example B280]
[1]
  efficacy: ≥ 70%
[2]
  efficacy: ≥ 70%

## CCCN(C)C(=O)c1cc(-c2ncnc(Nc3ccsc3)n2)ccn1 [Example C14]
[1]
  efficacy: ≥ 70%
[2]
  efficacy: ≥ 70%

## COCc1cccc(Nc2ncnc(-c3ccnc(C(=S)N(C)CC4CC4)c3)n2)c1 [Example B249]
[1]
  efficacy: ≥ 70%

## CN(CCC#N)C(=O)c1cc(-c2ncnc(Nc3ccc(F)c(F)c3)n2)ccn1 [Example B384]
[1]
  efficacy: ≥ 70%
[2]
  efficacy: ≥ 70%

## COCCN(C)C(=O)c1cc(-c2ncnc(Nc3cccc(C(F)(F)F)c3)n2)ccn1 [Example B361]
[1]
  efficacy: ≥ 70%

## CN(CCC#N)C(=O)c1cc(-c2ncnc(Nc3cccc(C#N)c3)n2)ccn1 [Example B291]
[1]
  efficacy: ≥ 70%

## CC(C)N(C)C(=S)c1cc(-c2ncnc(Nc3ccc(F)c(C(F)F)c3)n2)ccn1 [Example B329]
[1]
  efficacy: ≥ 70%

## CCCN(C)C(=O)c1cc(-c2ncnc(Nc3cccc(OC(F)(F)F)c3)n2)ccn1 [Example B264]
[1]
  efficacy: ≥ 70%

## CC(C)N(C)C(=O)c1cc(-c2ncnc(Nc3ccc(F)c(C(F)F)c3)n2)ccn1 [Example B396]
[1]
  efficacy: ≥ 70%

## COCC(C1CC1)N(C)C(=O)c1cc(-c2ncnc(Nc3cccc(Cl)c3)n2)ccn1 (centres unmarked) [Example B188]
[1]
  efficacy: ≥ 70%
[2]
  efficacy: ≥ 70%

## COCc1cccc(Nc2ncnc(-c3ccnc(C(=O)N(C)C)c3)n2)c1 [Example B243]
[1]
  efficacy: ≥ 70%

## CN(CCC#N)C(=O)c1cc(-c2ncnc(Nc3cccc(C(F)(F)F)c3)n2)ccn1 [Example B363]
[1]
  efficacy: ≥ 70%
[2]
  efficacy: ≥ 70%

## CCN(C)C(=O)c1cc(-c2ncnc(Nc3ccc(F)c(F)c3)n2)ccn1 [Example B378]
[1]
  efficacy: ≥ 70%

## CC(C)N(C)C(=O)c1cc(-c2ncnc(Nc3ccc(F)c(F)c3)n2)ccn1 [Example B383]
[1]
  efficacy: ≥ 70%

## CN(C)C(=O)c1cc(-c2ncnc(Nc3cc(F)ccc3F)n2)ccn1 [Example B354]
[1]
  efficacy: ≥ 70%

## CCCN(C)C(=O)c1cc(-c2ncnc(Nc3cccc(NC(C)=O)c3)n2)ccn1 [Example B305]
[1]
  efficacy: ≥ 70%

## O=C(NC1CC1)c1cc(-c2ncnc(Nc3cccc(Cl)c3)n2)ccn1 [Example B57]
[1]
  efficacy: ≥ 70%

## COCc1cccc(Nc2ncnc(-c3ccnc(C(=O)N(C)C(C)C)c3)n2)c1 [Example B246]
[1]
  efficacy: ≥ 70%

## CN(CC(F)F)C(=S)c1cc(-c2ncnc(Nc3ccc(F)c(C(F)F)c3)n2)ccn1 [Example B342]
[1]
  efficacy: ≥ 70%

## COCCN(C)C(=O)c1cc(-c2ncnc(Nc3ccc(F)cc3)n2)ccn1 [Example B22]
[1]
  efficacy: ≥ 70%

## O=C(c1cc(-c2ncnc(Nc3cccc(Cl)c3)n2)ccn1)N1CCCC1 [Example B28]
[1]
  efficacy: ≥ 70%

## Cc1ccc(Nc2ncnc(-c3ccnc(C(=O)N(C)CC(C)C)c3)n2)cc1Cl [Example B368]
[1]
  efficacy: ≥ 70%
[2]
  efficacy: ≥ 70%

## CCCN(C)C(=S)c1cc(-c2ncnc(Nc3cccc(COC)c3)n2)ccn1 [Example B250]
[1]
  efficacy: ≥ 70%

## COc1cccc(Nc2ncnc(-c3ccnc(C(=O)N(C)C(C)C)c3)n2)c1 [Example B279]
[1]
  efficacy: ≥ 70%

## COCC(C1CC1)N(C)C(=O)c1cc(-c2ncnc(Nc3ccc(F)cc3)n2)ccn1 (centres unmarked) [Example B24]
[1]
  efficacy: ≥ 70%

## CSc1cccc(Nc2ncnc(-c3ccnc(C(=O)N(C)CC(F)F)c3)n2)c1 [Example B372]
[1]
  efficacy: ≥ 70%
[2]
  efficacy: ≥ 70%

## CN(CC1CC1)C(=O)c1cc(-c2ncnc(Nc3cccc(OC(F)(F)F)c3)n2)ccn1 [Example B265]
[1]
  efficacy: ≥ 70%
